Measurements taken from paper PMC6559718 (Journal of biomolecular screening, 2016).

Legend:
[1] = tested on: yeast strain expressing hANT3; assay: microbe, parasite or virus in culture; type: cell-based; conditions: Saccharomyces cerevisiae, read-out: Activity hANT3 IC50
[2] = tested on: yeast strain expressing hANT4; assay: microbe, parasite or virus in culture; type: cell-based; conditions: Saccharomyces cerevisiae, read-out: Activity hANT4 IC50

CCCCc1oc2ccccc2c1C(=O)c1cc(I)c(OCCN(CC)CC)c(I)c1 [Amiodarone]
IC50 [1]: 16 ± 10 µM
IC50 [2]: 22 ± 10 µM
